# Read-outs that look alike come from different tables or passages of the source. Some results were stated once for a whole list of compounds, not compound by compound.
# B1: trypsin: Serine protease cleaving at lysine or arginine; applied to exosomes or cells (protein, UniProt P00761 9-231, looked up)
# Trypsin: IVGGYTCAANSIPYQVSLNSGSHFCGGSLINSQWVVSAAHCYKSRIQVRLGEHNIDVLEGNEQFINAAKIITHPNFNGNTLDNDIMLIKLSSPATLNSRVATVSLPRSCAAAGTECLISGWGNTKSSGSSYPSLLQCLKAPVLSDSSCKSSYPGQITGNMICVGFLEGGKDSCQGDSGGPVVCNGQLQGIVSWGYGCAQKNKPGVYTKVCNYVNWIQQTIAAN
# Tested on: human colon carcinoma Caco-2 cells
# Format: cell-based
# Method: Caco-2 cells and IEC-6 cells were seeded at a density of 20,000 and 7000 cells/well, respectively, in 96-well plates, and allowed to adhere for 48 h, when cells were 75% confluent. The exosomes were labeled with the fluorophore, FM 4-64 (Molecular Probes). One microliter of a stock solution of FM 4-64 (5.9 mmol/L) was added to 1 mL of exosome suspension and incubated for 15 min at 37° C., and excess FM 4-64 was removed by ultracentrifugation at 120,000 3 g at 4° C. for 90 min. […] Assays were calibrated by quantifying the fluorescence of a known mass of exosomes labeled with FM 4-64. Exosome uptake was analyzed by measuring the cell fluorescence at 515 (excitation) and 640 nm (emission) using a Biotek FLx800 plate reader (BioTek Instru-ments). Fluorescence readings were corrected for cell autofluorescence by subtracting signals measured in cells incubated with exosome-depleted media. […] In Caco-2 cells, exosome uptake was linear for up to 120 min if transport was measured using nonsaturating substrate concentrations (FIG. 33A): y=0.0012x+0.014 (r2=0.97; P<0.05). In IEC-6 cells exosome uptake was linear for only up to 60 min if transport was measured using nonsaturating substrate concentrations (FIG. 33B): y=0.0033x+0.033 (r2=0.75; P<0.05). […]
molecule,measurement,setting,value
B1,decrease of exosome uptake,Caco-2 cells treated with the labelled agent,greater than 50%
same,decrease of exosome uptake,exosomes treated with the labelled agent,greater than 50%
